Measurements reported in PubChem BioAssay AID720505 (Drosophila RNAi Screening Center, 2013)
Aim: 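Genes needed for store-operated calcium entry in fly cells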 (primary screen). Cell system: Drosophila S2R+ cells. Reagent: long dsRNA against Drosophila genes. Treatment: thapsigargin (2 µM) in calcium-free buffer to empty internal stores, then 2 mM calcium added back. Measurement: 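Fluo-4 signal in 384-well plates read on a FLIPR after thapsigargin (2 µM, calcium-free) store depletion and 2 mM calcium add-back; unnormalised mean endpoint per well; screen run twice, selected wells retested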. Reading the numbers: calcium signal and retest calcium signal: higher = more calcium entry after store depletion. Rule for the call: 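Knock-downs counted as hits when calcium entry dropped relative to STIM1 positive and Rho1 negative controls present on each plate; roughly 1500 genes called, with reductions of differing size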. Meaning of the calls: active = called as lowering calcium entry; inactive = not called.
The deposit covers about 20,000 reagents; this is a random part of those with a known target gene and a result. Over the whole deposit, about 2,100 (10%) got an active call. 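Raw plate signals without normalisation; calls rest on control-based scores that were not deposited; replicate 2 separates called from uncalled poorly.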 A number with no mark means an inactive call. The numbers tell different reagents against one gene apart. Names joined by + are all predicted targets of the reagent. Not given: the amount of reagent, the time to read-out.

gene knocked down,dsRNA no.,"calcium signal, replicate 1","calcium signal, replicate 2","retest calcium signal, replicate 1","retest calcium signal, replicate 2"
CG1722,1,228,85.8,,
Tasp1,1,163,80.8,,
Gnpnat,1,143,144,,
pen-2,1,75.6 (active),76.6,,
CG4267,1,81.2,93.2,,
CG4267,2,115,151,,
Kr-h1,1,96.3,177,,
Kr-h1,2,121,198,,
Ctl1,1,100,98.6,,
CG11349,1,80,63,,
CG12093,1,73.4 (active),146,,
unc-104,1,165,133,,
CG14420,1,126,154,,
Pgcl,1,68.3,110,,
CG12502,1,102,129,,
CG12502,2,84.5,128,,
Rhau,1,66.4 (active),84.2,,
CG14230,1,129,97.3,,
CG12376,1,200,149,,
TBC1D23,1,203,143,,
FucTB,1,161,132,,
CG30385,1,138,130,,
I-t,1,150,110,,
AlkB,1,91.5,163,,
RabX6,1,102,137,,
Syn2,1,181,176,,
GluClalpha,1,227,143,,
Tip60,1,131,144,,
Nepl9,1,95.9,127,,
CG13248,1,81.2,129,,
GluRIID,1,228,198,,
CG14322,1,153,79,,
CG34196,1,104,110,,
m,1,123,109,,
sll,1,191,278,,
CG12995,1,106,136,,
CG4783,1,104,161,,
Buffy,1,124,231,,
Dtg,1,116,128,,
Gem3,1,89.4,114,,
fs(1)Ya,1,115,151,,
fs(1)Ya,2,101,140,,
CG8079,1,113,107,,
CG8079,2,94,180,,
Ucp4A,1,130,134,111,71
Ptpmeg,1,123,110,,
Sik3,1,168,105,,
Sik3,2,71.4 (active),161,,
CG5114,1,98.1,68.6,,
CG34377,1,220,119,,
CG34377,2,218,118,,
CG34377,3,237,157,,
CG34377,4,201,142,,
Cyp6a22,1,147,155,,
mys,1,168,139,,
CG6340,1,63.6 (active),114,4737,124
Hmg-2,1,123,81.2,,
sqd,1,89.9,188,,
sqd,2,183,166,,
sqd,3,97.5,172,,
B4,1,85.5,123,,
B4,2,91.6,109,,
CG6425,1,132,139,,
pre-mod(mdg4)-W + pre-mod(mdg4)-Y + mod(mdg4) + 3 more,1,82.5,81.6,,
Best1,1,121,78.3,78.3,81
CG33339,1,85,183,,
Mst84Dd,1,152,144,,
egr,1,132,108,,
CG13151,1,117,166,,
Mov10,1,65.2 (active),132,,
CG17490,1,155,7989,,
CG17490,2,66.2,126,,
SkpA,1,101,182,,
CG34355,1,7015,126,,
CG34355,2,152,92.6,,
CG34355,3,135,117,,
CG34355,4,226,114,,
GramD1B,1,123,106,,
GramD1B,2,138,176,,
Crys,1,112,93.6,,
CG5895,1,99.5,157,,
br,1,98.1,169,,
br,2,107,137,102,80.6
br,3,75.6,155,,

Not a retest: entries from further up.
gene knocked down,dsRNA no.,"calcium signal, replicate 1","calcium signal, replicate 2","retest calcium signal, replicate 1","retest calcium signal, replicate 2"
CG34355,4,226,114,,
GramD1B,1,123,106,,
GramD1B,2,138,176,,
Crys,1,112,93.6,,
